Experimental data taken from publication PMC11066047.
These are yes or no findings as the source states them, for the method shown. Binding seen in cells or lysates may run through a third protein. Some binding calls cover weakened binding; strength is not graded here. For part of these data: Where a sequence is shown, tags or fusion partners need not be part of it. One block for each molecule: values may come before it.

Sequences of proteins named here, by UniProt entry; tags and fusion partners are left off.
UniProt P20795: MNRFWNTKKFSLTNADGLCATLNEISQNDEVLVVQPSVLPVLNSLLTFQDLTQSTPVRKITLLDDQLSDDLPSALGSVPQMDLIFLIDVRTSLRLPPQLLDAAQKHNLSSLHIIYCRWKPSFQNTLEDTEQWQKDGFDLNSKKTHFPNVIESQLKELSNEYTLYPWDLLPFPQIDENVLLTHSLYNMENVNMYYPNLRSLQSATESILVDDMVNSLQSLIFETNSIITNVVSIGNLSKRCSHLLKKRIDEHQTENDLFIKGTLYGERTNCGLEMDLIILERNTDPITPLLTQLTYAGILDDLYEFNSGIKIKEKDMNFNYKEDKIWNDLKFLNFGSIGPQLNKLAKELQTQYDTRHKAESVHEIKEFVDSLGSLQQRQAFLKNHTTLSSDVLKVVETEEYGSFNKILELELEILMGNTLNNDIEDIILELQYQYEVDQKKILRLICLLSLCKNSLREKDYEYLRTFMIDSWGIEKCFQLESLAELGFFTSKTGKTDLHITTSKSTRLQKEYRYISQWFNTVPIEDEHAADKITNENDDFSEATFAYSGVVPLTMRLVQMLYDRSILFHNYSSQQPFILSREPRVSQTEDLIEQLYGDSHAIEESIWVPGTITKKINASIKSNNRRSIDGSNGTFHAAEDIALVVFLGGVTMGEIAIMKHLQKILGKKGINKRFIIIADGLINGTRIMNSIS
UniProt Q03308: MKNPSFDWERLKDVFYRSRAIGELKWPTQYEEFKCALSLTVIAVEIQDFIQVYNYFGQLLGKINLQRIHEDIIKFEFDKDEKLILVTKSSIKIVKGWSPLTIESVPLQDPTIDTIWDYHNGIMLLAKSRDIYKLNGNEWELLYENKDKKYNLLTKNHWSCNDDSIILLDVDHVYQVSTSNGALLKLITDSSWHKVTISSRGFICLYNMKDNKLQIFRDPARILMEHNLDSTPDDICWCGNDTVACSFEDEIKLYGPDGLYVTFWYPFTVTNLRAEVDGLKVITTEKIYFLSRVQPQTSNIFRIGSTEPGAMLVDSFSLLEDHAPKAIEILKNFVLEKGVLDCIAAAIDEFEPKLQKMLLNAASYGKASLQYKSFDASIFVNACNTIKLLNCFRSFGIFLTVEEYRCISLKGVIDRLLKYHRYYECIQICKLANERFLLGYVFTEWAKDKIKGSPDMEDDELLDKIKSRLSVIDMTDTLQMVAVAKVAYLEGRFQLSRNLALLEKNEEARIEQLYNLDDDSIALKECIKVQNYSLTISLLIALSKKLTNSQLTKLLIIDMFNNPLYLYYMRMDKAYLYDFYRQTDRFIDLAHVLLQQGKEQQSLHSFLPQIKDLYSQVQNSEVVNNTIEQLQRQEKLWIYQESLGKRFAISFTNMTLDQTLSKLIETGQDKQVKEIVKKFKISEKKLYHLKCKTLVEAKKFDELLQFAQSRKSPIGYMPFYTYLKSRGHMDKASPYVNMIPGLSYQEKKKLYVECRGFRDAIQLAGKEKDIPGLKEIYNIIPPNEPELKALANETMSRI
UniProt P39940: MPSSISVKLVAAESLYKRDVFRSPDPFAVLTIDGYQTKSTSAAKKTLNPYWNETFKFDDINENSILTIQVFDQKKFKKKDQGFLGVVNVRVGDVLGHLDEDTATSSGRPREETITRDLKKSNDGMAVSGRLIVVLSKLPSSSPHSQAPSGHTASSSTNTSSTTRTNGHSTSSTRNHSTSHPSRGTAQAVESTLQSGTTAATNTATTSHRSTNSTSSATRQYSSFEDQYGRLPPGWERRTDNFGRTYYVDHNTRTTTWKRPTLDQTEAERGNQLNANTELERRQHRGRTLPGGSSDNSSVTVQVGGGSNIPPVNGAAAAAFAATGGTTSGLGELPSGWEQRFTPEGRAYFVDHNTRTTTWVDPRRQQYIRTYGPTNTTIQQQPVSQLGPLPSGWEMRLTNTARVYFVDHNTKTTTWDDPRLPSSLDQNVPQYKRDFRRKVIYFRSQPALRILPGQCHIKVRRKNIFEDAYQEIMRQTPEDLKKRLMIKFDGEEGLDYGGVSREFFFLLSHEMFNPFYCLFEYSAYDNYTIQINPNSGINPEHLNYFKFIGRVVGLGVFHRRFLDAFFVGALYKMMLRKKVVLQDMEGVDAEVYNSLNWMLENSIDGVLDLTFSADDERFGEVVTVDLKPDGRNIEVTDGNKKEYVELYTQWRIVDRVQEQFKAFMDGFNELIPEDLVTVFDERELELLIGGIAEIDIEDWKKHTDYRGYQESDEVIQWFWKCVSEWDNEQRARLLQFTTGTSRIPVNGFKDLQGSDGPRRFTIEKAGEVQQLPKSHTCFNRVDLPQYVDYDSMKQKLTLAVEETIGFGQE
UniProt Q04338: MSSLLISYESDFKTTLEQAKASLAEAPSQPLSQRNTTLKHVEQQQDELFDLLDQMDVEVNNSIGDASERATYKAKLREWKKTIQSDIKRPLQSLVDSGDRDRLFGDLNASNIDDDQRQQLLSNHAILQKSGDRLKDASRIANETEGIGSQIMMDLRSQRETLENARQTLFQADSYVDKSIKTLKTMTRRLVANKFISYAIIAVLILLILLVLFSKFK
UniProt P32939: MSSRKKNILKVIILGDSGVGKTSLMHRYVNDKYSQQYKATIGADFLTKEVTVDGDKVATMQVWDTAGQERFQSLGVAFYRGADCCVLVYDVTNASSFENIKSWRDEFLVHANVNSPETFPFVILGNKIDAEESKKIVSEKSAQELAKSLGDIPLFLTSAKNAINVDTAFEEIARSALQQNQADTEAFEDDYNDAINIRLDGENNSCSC

Columns and labels:
Test in all cases: cross-linking; XL-MS on isolated intact yeast vacuoles; 1 mM Azide-A-DSBSO (lysine-lysine), 20 min at room temperature, 10 mM HEPES/KOH pH 7.4 buffers; 2% FDR at unique lysine-lysine connection level
[1] = target: T1, Nyv1 (Saccharomyces cerevisiae (endogenous in isolated vacuoles)) (UniProt Q12255)
T1 sequence: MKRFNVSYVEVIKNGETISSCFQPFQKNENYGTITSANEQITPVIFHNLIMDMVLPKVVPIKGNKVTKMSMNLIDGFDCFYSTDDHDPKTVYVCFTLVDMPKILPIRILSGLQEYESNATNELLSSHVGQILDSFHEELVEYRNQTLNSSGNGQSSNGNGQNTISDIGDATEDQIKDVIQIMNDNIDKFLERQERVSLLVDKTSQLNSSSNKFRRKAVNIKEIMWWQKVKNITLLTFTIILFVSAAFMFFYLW

[2] = target: T2, Ivy1 (Saccharomyces cerevisiae (endogenous in isolated vacuoles)) (UniProt Q04934)
T2 sequence: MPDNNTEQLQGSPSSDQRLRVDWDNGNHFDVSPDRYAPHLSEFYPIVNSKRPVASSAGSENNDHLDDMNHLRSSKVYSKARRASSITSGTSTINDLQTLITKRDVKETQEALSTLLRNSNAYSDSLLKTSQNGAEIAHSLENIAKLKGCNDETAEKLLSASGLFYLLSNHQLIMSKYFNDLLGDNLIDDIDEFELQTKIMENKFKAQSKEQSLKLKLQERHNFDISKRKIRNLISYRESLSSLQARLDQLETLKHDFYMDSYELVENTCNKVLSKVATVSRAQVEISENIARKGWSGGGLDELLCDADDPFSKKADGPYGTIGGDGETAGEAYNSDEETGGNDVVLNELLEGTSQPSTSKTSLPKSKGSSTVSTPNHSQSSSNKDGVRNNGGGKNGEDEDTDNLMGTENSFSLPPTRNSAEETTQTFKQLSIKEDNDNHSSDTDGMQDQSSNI

[3] = target: T3, Ssh4 (adapter protein of Rsp5) (Saccharomyces cerevisiae (endogenous in isolated vacuoles)) (UniProt P32343)
T3 sequence: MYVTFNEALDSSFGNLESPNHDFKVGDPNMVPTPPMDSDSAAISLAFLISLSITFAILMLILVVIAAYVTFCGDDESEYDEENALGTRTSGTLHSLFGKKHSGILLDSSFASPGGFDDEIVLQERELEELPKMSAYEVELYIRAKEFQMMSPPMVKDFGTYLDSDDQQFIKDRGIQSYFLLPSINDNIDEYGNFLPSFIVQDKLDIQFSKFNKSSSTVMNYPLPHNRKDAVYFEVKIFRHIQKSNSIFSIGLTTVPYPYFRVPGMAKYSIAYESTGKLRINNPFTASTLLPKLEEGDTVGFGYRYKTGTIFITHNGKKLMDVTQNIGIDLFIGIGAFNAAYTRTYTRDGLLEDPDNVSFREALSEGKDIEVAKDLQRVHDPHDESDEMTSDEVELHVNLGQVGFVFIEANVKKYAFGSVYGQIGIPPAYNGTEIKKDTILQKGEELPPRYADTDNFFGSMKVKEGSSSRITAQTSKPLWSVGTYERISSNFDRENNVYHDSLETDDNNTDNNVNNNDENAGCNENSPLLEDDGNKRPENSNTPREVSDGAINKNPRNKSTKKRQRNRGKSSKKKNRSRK

[4] = target: T4, Sec17 (homolog of alpha-SNAP) (Saccharomyces cerevisiae (endogenous in isolated vacuoles)) (UniProt P32602)
T4 sequence: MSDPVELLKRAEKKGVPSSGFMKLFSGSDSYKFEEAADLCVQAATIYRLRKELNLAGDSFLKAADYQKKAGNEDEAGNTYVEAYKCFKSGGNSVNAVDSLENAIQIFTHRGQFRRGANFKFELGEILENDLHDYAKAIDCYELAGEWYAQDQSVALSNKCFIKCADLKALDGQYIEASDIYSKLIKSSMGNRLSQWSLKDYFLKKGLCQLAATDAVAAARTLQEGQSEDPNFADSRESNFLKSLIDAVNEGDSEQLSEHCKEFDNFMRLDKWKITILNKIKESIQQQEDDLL

[5] = target: T5, Vam3 (Saccharomyces cerevisiae (endogenous in isolated vacuoles)) (UniProt Q12241)
T5 sequence: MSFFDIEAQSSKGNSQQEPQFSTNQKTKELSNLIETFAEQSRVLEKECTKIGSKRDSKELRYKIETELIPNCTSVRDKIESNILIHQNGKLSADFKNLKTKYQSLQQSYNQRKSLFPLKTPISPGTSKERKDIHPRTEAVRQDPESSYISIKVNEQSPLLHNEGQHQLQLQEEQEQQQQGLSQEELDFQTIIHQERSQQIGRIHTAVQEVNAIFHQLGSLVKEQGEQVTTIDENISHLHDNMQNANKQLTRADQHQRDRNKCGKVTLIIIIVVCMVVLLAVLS

[6] = target: Vps33 (Saccharomyces cerevisiae (endogenous in isolated vacuoles)) (UniProt P20795)
[7] = target: Vps16 (Saccharomyces cerevisiae (endogenous in isolated vacuoles)) (UniProt Q03308)
[8] = target: T6, Sec17 (homolog of alpha-SNAP) (Saccharomyces cerevisiae (endogenous in isolated vacuoles)), P32602; details: remark: other sources report otherwise
T6 chain: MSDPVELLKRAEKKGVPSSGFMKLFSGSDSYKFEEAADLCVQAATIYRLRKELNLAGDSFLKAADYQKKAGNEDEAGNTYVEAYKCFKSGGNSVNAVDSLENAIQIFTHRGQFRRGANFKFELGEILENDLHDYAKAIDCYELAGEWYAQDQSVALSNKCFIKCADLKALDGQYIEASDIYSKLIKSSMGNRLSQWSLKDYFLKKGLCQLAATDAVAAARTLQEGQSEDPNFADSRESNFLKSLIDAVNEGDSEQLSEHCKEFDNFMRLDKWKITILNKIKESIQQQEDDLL

[9] = target: T7, Lcb4 (palmitoylated protein) (Saccharomyces cerevisiae (endogenous in isolated vacuoles)) (UniProt Q12246)
T7 sequence: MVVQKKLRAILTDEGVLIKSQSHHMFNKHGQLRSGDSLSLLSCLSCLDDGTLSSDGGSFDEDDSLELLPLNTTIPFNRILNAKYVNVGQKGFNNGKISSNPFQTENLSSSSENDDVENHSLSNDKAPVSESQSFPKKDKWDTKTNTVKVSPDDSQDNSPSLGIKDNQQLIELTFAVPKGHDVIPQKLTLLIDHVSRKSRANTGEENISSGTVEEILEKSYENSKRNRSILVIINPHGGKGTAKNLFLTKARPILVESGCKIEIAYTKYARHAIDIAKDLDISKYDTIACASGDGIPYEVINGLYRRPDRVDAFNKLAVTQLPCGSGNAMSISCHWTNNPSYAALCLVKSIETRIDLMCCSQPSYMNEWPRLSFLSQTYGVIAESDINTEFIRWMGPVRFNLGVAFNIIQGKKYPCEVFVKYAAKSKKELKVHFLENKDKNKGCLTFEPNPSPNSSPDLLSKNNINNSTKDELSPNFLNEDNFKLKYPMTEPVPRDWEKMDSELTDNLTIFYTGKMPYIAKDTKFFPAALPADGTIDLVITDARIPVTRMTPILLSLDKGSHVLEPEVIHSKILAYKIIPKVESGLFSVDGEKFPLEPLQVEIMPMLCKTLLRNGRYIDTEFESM

Molecule: Rsp5 (ubiquitin ligase) (from UniProt P39940 1-809) (enzyme)
- binding [3]: binds

B2: Nyv1 (protein, UniProt Q12255 1-253)
chain: MKRFNVSYVEVIKNGETISSCFQPFQKNENYGTITSANEQITPVIFHNLIMDMVLPKVVPIKGNKVTKMSMNLIDGFDCFYSTDDHDPKTVYVCFTLVDMPKILPIRILSGLQEYESNATNELLSSHVGQILDSFHEELVEYRNQTLNSSGNGQSSNGNGQNTISDIGDATEDQIKDVIQIMNDNIDKFLERQERVSLLVDKTSQLNSSSNKFRRKAVNIKEIMWWQKVKNITLLTFTIILFVSAAFMFFYLW
- binding [6]: binds
- binding [7]: binds

B3: Nyv1, Q12255 1-253 (protein)
chain: MKRFNVSYVEVIKNGETISSCFQPFQKNENYGTITSANEQITPVIFHNLIMDMVLPKVVPIKGNKVTKMSMNLIDGFDCFYSTDDHDPKTVYVCFTLVDMPKILPIRILSGLQEYESNATNELLSSHVGQILDSFHEELVEYRNQTLNSSGNGQSSNGNGQNTISDIGDATEDQIKDVIQIMNDNIDKFLERQERVSLLVDKTSQLNSSSNKFRRKAVNIKEIMWWQKVKNITLLTFTIILFVSAAFMFFYLW
- binding [8]: binds

B4: Akr1 (palmitoyltransferase) (enzyme, UniProt P39010 1-764)
chain: MVNELENVPRASTLTNEEQTVDPSNNDSQEDISLGDSNEITSLASLKAIRSGNEEESGNEQVNHNDEAEEDPLLTRYHTACQRGDLATVKEMIHGKLLEVNNDGDSTEHITGLHWASINNRLSVVDFLVSQGADVNARAGALHATPLHWAARYGYVYIVDFLLKHGADPTMTDDQGFNLLHLSVNSSNIMLVLYVLFNVVSKGLLDIDCRDPKGRTSLLWAAYQGDSLTVAELLKFGASIKIADTEGFTPLHWGTVKGQPHVLKYLIQDGADFFQKTDTGKDCFAIAQEMNTVYSLREALTHSGFDYHGYPIKKWFKKSQHAKLVTFITPFLFLGIAFALFSHINPLFVIIVLFLLAIATNKGLNKFVLPSYGRMGVHNVTLLRSPLLSGVFFGTLLWVTIVWFFKVMPRTFSDEQYTNILMLVILVSVFYLFGQLVIMDPGCLPEETDHENVRQTISNLLEIGKFDTKNFCIETWIRKPLRSKFSPLNNAVVARFDHYCPWIFNDVGLKNHKAFIFFITLMESGIFTFLALCLEYFDELEDAHEDTSQKNGKCFILGASDLCSGLIYDRFVFLILLWALLQSIWVASLIFVQAFQICKGMTNTEFNVLMKESKSIGPDGLSFNENFNTTPEGFAPSIDPGEESNDTVLAPVPGSTIRKPRTCFGVCYAVTGMDQWLAVIKETIGIKDSTGHNVYSITSRIPTNYGWKRNVKDFWLTSDINAPLWRRILYPPSGSKALLNGIEVDYFKLYKLPNKDVEQGNDMV
- binding [9]: binds

B5: Vam3 (protein, UniProt Q12241 1-283)
chain: MSFFDIEAQSSKGNSQQEPQFSTNQKTKELSNLIETFAEQSRVLEKECTKIGSKRDSKELRYKIETELIPNCTSVRDKIESNILIHQNGKLSADFKNLKTKYQSLQQSYNQRKSLFPLKTPISPGTSKERKDIHPRTEAVRQDPESSYISIKVNEQSPLLHNEGQHQLQLQEEQEQQQQGLSQEELDFQTIIHQERSQQIGRIHTAVQEVNAIFHQLGSLVKEQGEQVTTIDENISHLHDNMQNANKQLTRADQHQRDRNKCGKVTLIIIIVVCMVVLLAVLS
- binding [7]: binds
- binding [1]: binds

Now from value to molecule:

- binding [1]: binds
Molecule: Vti1 (from UniProt Q04338 1-217)

- binding [2]: binds
Molecule: Ypt7 (vacuolar Rab GTPase) (from UniProt P32939 1-208)

- binding [4]: binds
- binding [5]: binds
B1: Ykt6 (protein, UniProt P36015 1-200)
chain: MRIYYIGVFRSGGEKALELSEVKDLSQFGFFERSSVGQFMTFFAETVASRTGAGQRQSIEEGNYIGHVYARSEGICGVLITDKEYPVRPAYTLLNKILDEYLVAHPKEEWADVTETNDALKMKQLDTYISKYQDPSQADAIMKVQQELDETKIVLHKTIENVLQRGEKLDNLVDKSESLTASSKMFYKQAKKSNSCCIIM

- binding [8]: binds
B6: Vam3, Q12241 1-283 (protein)
chain: MSFFDIEAQSSKGNSQQEPQFSTNQKTKELSNLIETFAEQSRVLEKECTKIGSKRDSKELRYKIETELIPNCTSVRDKIESNILIHQNGKLSADFKNLKTKYQSLQQSYNQRKSLFPLKTPISPGTSKERKDIHPRTEAVRQDPESSYISIKVNEQSPLLHNEGQHQLQLQEEQEQQQQGLSQEELDFQTIIHQERSQQIGRIHTAVQEVNAIFHQLGSLVKEQGEQVTTIDENISHLHDNMQNANKQLTRADQHQRDRNKCGKVTLIIIIVVCMVVLLAVLS
